Measured values reported in patent US4431742A, “Radioreceptor assay for benzodiazepines in saliva” (The United States of America as represented by the …, priority 1981, dated 1984).

System: diazepam receptor (fresh rat frontal cortex)
Test: radioreceptor assay: inhibition of ^3 H-diazepam binding (selectivity, drugs incubated with saliva)
Details: 10^-5 M, ^3 H-diazepam 0.50 nM

Structure (SMILES) | inhibition of ^3 H-diazepam binding compared with saliva itself
OCCN1CCN(CCCN2c3ccccc3Sc3ccc(C(F)(F)F)cc32)CC1 [fluphenazine] | failed to inhibit ^3 H-diazepam binding more than saliva itself
O=C(CCCN1CCC(O)(c2ccc(Cl)cc2)CC1)c1ccc(F)cc1 [haloperidol] | failed to inhibit ^3 H-diazepam binding more than saliva itself
CC(C)NCC(O)COc1cccc2ccccc12 (racemic) [dl-propranolol] | failed to inhibit ^3 H-diazepam binding more than saliva itself
